Test [1] addresses WRKY53 (Arabidopsis thaliana) (UniProt Q9SUP6). The experiment in a line: split reporter; ratiometric BiFC (pBiFCt-2in1-NN) in transiently transformed Arabidopsis protoplasts, overnight incubation in the dark, read by flow cytometry (CytoFLEX). A general note: In flow cytometry, cells or beads pass a laser one at a time.
The target of test [2] is T1, WRKY25 (Arabidopsis thaliana) (UniProt O22921).
T1 sequence: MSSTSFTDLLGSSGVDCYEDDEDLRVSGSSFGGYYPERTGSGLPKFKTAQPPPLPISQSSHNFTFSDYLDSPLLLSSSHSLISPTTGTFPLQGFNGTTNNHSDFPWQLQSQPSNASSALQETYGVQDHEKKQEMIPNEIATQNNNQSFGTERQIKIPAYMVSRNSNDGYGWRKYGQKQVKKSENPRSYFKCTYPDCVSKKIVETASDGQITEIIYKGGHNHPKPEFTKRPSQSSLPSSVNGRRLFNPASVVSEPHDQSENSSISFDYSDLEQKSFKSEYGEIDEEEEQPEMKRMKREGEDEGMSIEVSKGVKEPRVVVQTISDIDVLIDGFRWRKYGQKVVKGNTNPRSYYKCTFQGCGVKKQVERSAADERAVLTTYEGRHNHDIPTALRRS
The experiment in a line: split reporter; BiFC 2in1 (pBiFCt2in1-NN, both partners in one vector, 35S promoter, RFP as internal control) in transiently transformed N. benthamiana leaves; confocal microscopy two days after infiltration; YFP/RFP ratio for each nucleus.

Test [3] has as its target WRKY53 (Arabidopsis thaliana) (UniProt Q9SUP6). Described as above.
Test [4] deals with WRKY18 (Arabidopsis thaliana), Q9C5T4. Described as above. The settings on record: remark: other sources report otherwise.

No constants are given. Whether binding was seen depends on the method and setting. In cells and extracts the contact can be indirect. Some entries that bind do so weakly or less than the wild type.

B1: WRKY53 (protein, UniProt Q9SUP6 1-324)
chain: MEGRDMLSWEQKTLLSELINGFDAAKKLQARLREAPSPSSSFSSPATAVAETNEILVKQIVSSYERSLLLLNWSSSPSVQLIPTPVTVVPVANPGSVPESPASINGSPRSEEFADGGGSSESHHRQDYIFNSKKRKMLPKWSEKVRISPERGLEGPQDDVFSWRKYGQKDILGAKFPRSYYRCTHRSTQNCWATKQVQRSDGDATVFEVTYRGTHTCSQAITRTPPLASPEKRQDTRVKPAITQKPKDILESLKSNLTVRTDGLDDGKDVFSFPDTPPFYNYGTINGEFGHVESSPIFDVVDWFNPTVEIDTTFPAFLHESIYY
As for B1, the binding entry in test [1], in test [2] and in test [3] was “binds” in each case.

B2: WRKY53, Q9SUP6 1-324 (protein)
chain: B1 chain
Turning to B2, the binding result in test [4] is on record as “binds”.

For the origin of these results see PMC12307804.
